Reference: patent US20180311371A1
These are yes or no findings as the source states them, for the method shown. Some binding calls cover weakened binding; strength is not graded here.

B1: anti-TPBG antibody 051 (mAb) (antibody, V domains shown)
VH: EVQLLESGGGLLQPGGSLRLSCAASGFTFSIYWMTWVRQAPGKGLEWVSAISGSGGSTYYADSVKGRFTISRDNSKNTLYLQMNSLRAEDTAVYYCAKDYYSNVYWGQGTLVTVSS
VL: DIQMTQSPSSVSASVGDRVTITCRASQGIYSWLAWYQQKPGKAPKLLIYAASSLQSGVPSRFSGSGSGTDFTLTISSLQPEDFATYYCQQSDSPPYTFGQGTKLEIK
B2: anti-TPBG antibody 091 (mAb) (antibody, V domains shown)
VH: EVHLLESGGGLVHPGGSLRLSCAASGFTFRSDAMHWVRQAPGKGLEWVSGVSGSGGSPYYADSVKGRFTISRDDSKTTLYLQMNSLRAEDTAVYYCATGGSIAGSYYYYPMDVWGQGTTVTVSS
VL: DIQMTQSPSSLSASVGDRVTITCQASQDISNYLNWYQQKPGKAPKLLIYAASTLQIGVPSRFSGSGSGTDFTFTISSLQPEDFATYYCQQANSFPLTFGGGTKVEIK

Target: cynomolgus TPBG extracellular domain, huIgG1-Fc-His6 (cynomolgus)
Test: ELISA; Fc-TPBG coated; mAb titrated from 1 µg/ml

Binder | binding
B1 | binds
B2 | binds
